Some of the results follow. Values are raw readings; no control value is given beside them.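 First-pass screen: polymyxin B was added at a level that permeabilizes the Salmonella outer membrane while sparing the inner membrane. DMSO wells, with and without polymyxin B, defined maximum growth. Because plates differed from one another, each plate's data were ranked separately and the compounds with the lowest OD600 were carried forward as hits.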
System: Salmonella enterica serovar Typhimurium SL1344
Assay: bacterial growth OD600 after 18 h with compound and polymyxin B; higher = more bacterial growth (less inhibition)
Details: 50 µM, Mueller-Hinton broth

SMILES | bacterial growth OD600 (polymyxin B 0.75 µg/mL) | bacterial growth OD600 (polymyxin B 1 µg/mL)
CCN(Cc1nccn1C)C(=O)c1ccc(N2CCC(N(C)C)C2)nc1 (stereo not drawn) | 0.81 | –
COc1ccc(F)c(CNC2CCCN(c3ncccn3)C2)c1 (stereo not drawn) | – | 0.848
CCn1c(-c2ccccc2F)nc2cc(C(=O)N(C)Cc3cccc(OC)c3)cc(NC(C)=O)c21 | 0.909 | –
COCC1CCCCN1Cc1cn(-c2ccccc2)nc1-c1ccc2c(c1)OCO2 (stereo not drawn) | – | 0.813
COc1ccc(CCCNC(=O)c2ccc(N3CCN(C)C(C)C3)nc2)cc1 (stereo not drawn) | – | 1.14
COc1ccc(OC)c(CNC(=O)CCC2(Cc3ccc(OC)c4ccccc34)CCC(=O)N2)c1 (stereo not drawn) | 0.885 | –
COc1ccc(-c2nn(-c3ccccc3C)cc2CN2CCCC(O)C2)cc1F (stereo not drawn) | – | 0.851
COC(=O)C1CCCCN1Cc1nc(-c2cccc(C(F)(F)F)c2)oc1C (stereo not drawn) | – | 0.967
Cc1cccc(-n2ncc3c2CCCC3NCc2cn(CC(N)=O)c3ccccc23)c1C (stereo not drawn) | 0.659 | –
CCOC(=O)C1(C/C=C/c2ccccc2)CCCN(Cc2cnc(SC)nc2)C1 (stereo not drawn) | – | 0.615
OC1CCCN(CCCNc2nc3nonc3nc2N2CCCCCC2)C1 (stereo not drawn) | – | 0.983
OC1CCCN(CCNc2nc3nonc3nc2N2CCSCC2)C1 (stereo not drawn) | 0.737 | –
CCN(Cc1ccncc1)C(=O)c1cc(COc2ccc(F)cc2F)on1 | 0.753 | –
CC[C@H](C)[C@H](NC(=O)c1cc(COc2ccc(F)c(F)c2)on1)C(=O)OC | 0.556 | –
COc1ccc(NC(=O)CCC2CCN(C(=O)C3CC34CCCC4)CC2)c(OC)c1 (stereo not drawn) | – | 0.941
Cc1ccc(Oc2ncccc2CNC(=O)c2cccc(F)c2)cn1 | – | 0.785
CCN(Cc1ccncc1)C(=O)CCc1nnc(CCc2ccc(OC)cc2)o1 | – | 0.95

A second format for part of the listing above.

| SMILES | bacterial growth OD600 (polymyxin B 0.75 µg/mL) | bacterial growth OD600 (polymyxin B 1 µg/mL) |
| --- | --- | --- |
| Cc1cccc(-n2ncc3c2CCCC3NCc2cn(CC(N)=O)c3ccccc23)c1C (stereo not drawn) | 0.659 | – |
| CCOC(=O)C1(C/C=C/c2ccccc2)CCCN(Cc2cnc(SC)nc2)C1 (stereo not drawn) | – | 0.615 |

Next compounds follow.

SMILES | bacterial growth OD600 (polymyxin B 0.75 µg/mL) | bacterial growth OD600 (polymyxin B 1 µg/mL)
COCC1CCN(C(=O)c2cc(COc3ccc(Cl)cc3OC)on2)C1 (stereo not drawn) | – | 0.954
CO[C@H]1[C@H](NC(=O)Cc2cccs2)c2ccccc2C12CCN(Cc1cccc(C(C)=O)c1)CC2 | 0.829 | –
Cc1oc(-c2cccc(NC(=O)CCc3cccnc3)c2)nc1CNC(=O)c1ccc2cc[nH]c2c1 | 0.657 | –
CN(CC1Cc2ccccc2O1)c1ccc(-c2nc(C3CC3)no2)cn1 (stereo not drawn) | – | 0.162
CCOC(=O)CN(C)C(=O)C1CCC(=O)N(Cc2cccc(OC)c2)C1 (stereo not drawn) | – | 0.756
COCCNC(=O)C1CCCN(c2nc(-c3ccccc3)nc3c2CCC3)C1 (stereo not drawn) | 0.875 | –
CC1CN(c2ccc(-c3nc(-c4ccccc4F)no3)cn2)CCN1C (stereo not drawn) | – | 1.04
Cc1cnc(C(=O)N2CCc3onc(-c4ccc(F)c(F)c4)c3C2)cn1 | 0.786 | –
CC#CCN1C(=O)NC(CCc2ccccc2)(C2CCN(Cc3cc(F)cc(F)c3)CC2)C1=O (stereo not drawn) | 0.322 | –
CN1CCNC(=O)C1CC(=O)N1CCCCCCC1 (stereo not drawn) | 0.86 | –
CC(CCn1cccn1)Nc1nncc(-c2cccc(F)c2)n1 (stereo not drawn) | 0.858 | –
COCCN1CCCC2(CCN(C(=O)c3ccc(C)s3)C2)C1=O (stereo not drawn) | – | 0.809
O=C(C1=CCCC1)N1CCCC(Nc2ccc3c(c2)OCCO3)C1 (stereo not drawn) | – | 0.836
Cc1ccc(CNc2nc(CN3CCN(C(C)C)CC3)nc3ccccc23)o1 | 0.875 | –
CCOC(=O)CC1CCCCN1Cc1nc(-c2ccc(C(=O)OC)cc2)oc1C (stereo not drawn) | – | 1.08
CCN(CC1CCCN(CCc2cccc(F)c2)C1)C(=O)CCSC (stereo not drawn) | – | 0.953

Reference: the supplement of paper PMC12889115
